Test results published in PubChem BioAssay AID2685 (National Center for Advancing Translational Sciences (NCATS), 2010).
Screen size: about 320,000 compounds; about 2,100 (0.66%) were called active. Inconclusive results, whose numbers are uncertain, are shown with a selection of clear calls. The call rests on the fitted dose curve; in most records, active means well fitted inhibition curve with a large enough effect in the signal ratio, with a control signal flat (not every such curve was filed as active); inconclusive means small, poorly fitted or top-dose-only effect, or effect the other way, or a change in a side signal; inactive means flat fitted curve, though single readings scatter; the % refers to the signal ratio. Potencies of inconclusive entries are doubtful fits and often do not repeat.

Test: qHTS Assay for Lipid Storage Modulators in Drosophila S3 Cells
Conditions: BODIPY lipid droplet fluorescence, 18-24 h, cells fed with added oleic acid; lipid storage change, negative = inhibition: at 46.1 µM (top of the series) unless noted
In short: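 Drosophila S3 cells got compounds at several concentrations plus oleic acid (400 uM solution). Laser-scanning cytometry with 488 nm excitation read lipid droplets at 500-530 nm and cells at 575-640 nm. Percent activity was relative to 20 uM Triacsin C.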
On the % scale 0 is the no-effect control and ±100 the full control effect; potency means the concentration at half of the fitted maximal effect.

Lipid storage change, negative = inhibition, inactive:
COc1ccc(NC(=O)CCN2CCCCCC2)cc1 -1.99%

Lipid storage change, negative = inhibition, inconclusive:
CCOCCc1nnc(NC(=O)CS(=O)(=O)c2ccc(C)cc2)s1 -15%
COc1ccc(-n2ccn(CC(=O)Nc3ccccc3OC)c(=O)c2=O)cc1 6.33%
CCOC(=O)c1ccc(N2CCOCC2)c(NS(=O)(=O)c2ccc(F)cc2)c1 -22.1%
O=C(N/N=C/c1ccco1)c1ccc2nc[nH]c2c1 0.214%
COC(=O)C1CCN(c2nc3ccccc3nc2C(C#N)C(=O)NCCc2ccccc2)CC1 (stereo unspecified) -9.78%
NC(=O)c1cc(S(=O)(=O)Nc2cccc(F)c2)co1 -17.1%
CC(=O)Nc1ccc(C(=O)CS(=O)(=O)c2ccc(C)cc2)cc1 14.9%
Cc1cccc(OCC(=O)N/N=C/CC(C)c2ccccc2)c1C (stereo unspecified) 21.8%
O=C(Nc1ccc2c(c1)OCCO2)c1cccc(S(=O)(=O)N2CCOCC2)c1 24.4%
CN(C)S(=O)(=O)c1ccc2c(c1)nc(CCC(=O)NCCc1ccc(Cl)cc1)n2C 45%

Potency, inconclusive:
Cc1ccccc1NC(=O)c1cc(S(=O)(=O)c2ccccc2)ccc1Cl 0.326 µM [activator, full curve]
CC(=O)c1ccc(NC(=O)C(C)Sc2nnc3ccccn23)cc1 (stereo unspecified) 29.1 µM [activator, single point]
COc1ccc(NS(=O)(=O)c2cccc(C(=O)NCc3ccccc3CN3CCCC3)c2)cc1 0.0291 µM [falling, full curve, poor fit]
Cc1ccc(NC(=O)c2cc(C(=O)c3cc(Cl)ccc3O)cn(-c3ccc(C)cc3)c2=O)cc1 6.51 µM [activator, single point]
CC(=O)c1c(N2CCN(C(=O)c3ccco3)CC2)nc(=S)n(-c2ccccc2)c1C 0.13 µM [falling, full curve, poor fit]
O=C(N[C@@H](Cc1ccccc1)c1nc2ccccc2[nH]1)c1cc([N+](=O)[O-])ccc1Cl 23.1 µM [activator, partial curve]
CCOC(=O)c1cc(C#N)c(NCc2ccccc2)nc1C 2.59 µM [activator, partial curve]

An excerpt from above in order of molar mass, rising:
Potency, inconclusive:
O=C(N[C@@H](Cc1ccccc1)c1nc2ccccc2[nH]1)c1cc([N+](=O)[O-])ccc1Cl 23.1 µM [activator, partial curve]
CC(=O)c1c(N2CCN(C(=O)c3ccco3)CC2)nc(=S)n(-c2ccccc2)c1C 0.13 µM [falling, full curve, poor fit]
COc1ccc(NS(=O)(=O)c2cccc(C(=O)NCc3ccccc3CN3CCCC3)c2)cc1 0.0291 µM [falling, full curve, poor fit]

Next part:

Potency, active:
O=C(Nc1ccc2oc(-c3cccnc3)nc2c1)c1ccc([N+](=O)[O-])o1 3.66 µM
COc1ccc(OC)c(NC(=O)CCCC(=O)NC2CCCCC2)c1 7.31 µM
CN(C)CC(C)(C)CNS(=O)(=O)c1ccc(Cl)c(Cl)c1 23.1 µM
